Taken from: PubChem BioAssay AID504808 (Drosophila RNAi Screening Center, 2011)

Purpose: 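Chromatin factors that keep E2F targets switched off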 (primary screen)
System: Drosophila S2 cells
Reagent: long dsRNA against Drosophila genes
Detection: 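Dual luciferase plate measurements; E2F-specific signal taken as firefly over Renilla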
Direction: E2F firefly: higher = more E2F reporter activity; Renilla normaliser: higher = more normaliser reporter signal
Call rule: 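Called active if the normalised E2F reporter went up by over 50%; the cutoff is arbitrary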
The screen tested about 21,000 reagents; below is a random part of those that have a named target and a result. Over the whole deposit, 18 (0.084%) are marked active. 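Raw counts without plate normalisation, one of two replicates; the ratio scores behind the calls were not deposited.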 The numbers tell different reagents against one gene apart. Names joined by + are all predicted targets of the reagent. The record does not give: the amount of reagent, the time to read-out.

| gene | reagent no. | E2F firefly, rep 1 | Renilla normaliser, rep 1 | activity call |
| --- | --- | --- | --- | --- |
| CG43896 | 1 | 1.32e5 | 6920 | inactive |
| Rm62 | 1 | 54414 | 3496 | inactive |
| Cpr56F | 1 | 1.47e5 | 5063 | inactive |
| Muc91C | 1 | 1.49e5 | 7686 | inactive |
| fz3 | 1 | 1.27e5 | 5595 | inactive |
| CG15545 | 1 | 1.17e5 | 6547 | inactive |
| Lcch3 | 1 | 8431 | 812 | inactive |
| CG17186 | 1 | 1.29e5 | 7029 | inactive |
| lectin-33A | 1 | 1.43e5 | 5331 | inactive |
| BomT2 | 1 | 1.40e5 | 5011 | inactive |
| CG30075 | 1 | 1.27e5 | 4673 | inactive |
| CG5151 | 1 | 99241 | 7106 | inactive |
| CG4098 | 1 | 1.77e5 | 9085 | inactive |
| aralar1 | 1 | 86375 | 2725 | inactive |
| aralar1 | 2 | 1682 | 992 | inactive |

A portion taken from the entries so far:
| gene | reagent no. | E2F firefly, rep 1 | Renilla normaliser, rep 1 | activity call |
| --- | --- | --- | --- | --- |
| lectin-33A | 1 | 1.43e5 | 5331 | inactive |
| BomT2 | 1 | 1.40e5 | 5011 | inactive |
| CG30075 | 1 | 1.27e5 | 4673 | inactive |
| CG5151 | 1 | 99241 | 7106 | inactive |

More entries follow:
| gene | reagent no. | E2F firefly, rep 1 | Renilla normaliser, rep 1 | activity call |
| --- | --- | --- | --- | --- |
| CG11889 + CG11891 | 1 | 1.19e5 | 6827 | inactive |
| CG11889 + CG11891 | 2 | 1.18e5 | 5869 | inactive |
| loaf | 1 | 1.25e5 | 5628 | inactive |
| CG14185 | 1 | 1.24e5 | 7711 | inactive |
| CG8813 | 1 | 90571 | 3676 | inactive |
| Arc42 | 1 | 1.34e5 | 6965 | inactive |
| Arc42 | 2 | 1.22e5 | 6902 | inactive |
| CG4709 | 1 | 74184 | 3454 | inactive |
| RpS10b | 1 | 1.46e5 | 7025 | inactive |
| Prosbeta4 | 1 | 86163 | 4449 | inactive |
| Pex11ab | 1 | 1.26e5 | 4769 | inactive |
| CG1983 | 1 | 1.35e5 | 7197 | inactive |
| Bro | 1 | 95875 | 4439 | inactive |
| CG4382 | 1 | 1.43e5 | 5365 | inactive |
| WDR79 | 1 | 97645 | 3619 | inactive |
| CG13121 (retired record) | 1 | 1.43e5 | 5738 | inactive |
| Exo70 | 1 | 1.04e5 | 4392 | inactive |
| p38b | 1 | 1.05e5 | 4070 | inactive |
| gny | 1 | 81015 | 3784 | inactive |
